Results from doi:10.1101/2025.08.01.668046.
Numbering of substitutions follows the chain as printed. Where two headings read alike, the source gives them in different places. No constants are given. Whether binding was seen depends on the method and setting. Binding seen in cells or lysates may run through a third protein. Some results given as binding are weak or reduced against the parent protein; the word gives no strength. Where a sequence is shown, tags or fusion partners need not be part of it.

Chains of the proteins cited; added tags and fusions are not shown. Residues count along the entry.
UniProt Q9XEB5, residues 1-117: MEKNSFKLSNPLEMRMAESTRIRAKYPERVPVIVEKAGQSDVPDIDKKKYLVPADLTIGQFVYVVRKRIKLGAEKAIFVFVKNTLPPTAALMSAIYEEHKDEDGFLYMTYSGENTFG

Experiments:
Assay in all cases: pull-down
GST-ATG8A (Arabidopsis) [1] = target: T1, GST-ATG8A (Arabidopsis) (UniProt Q8LEM4)
T1 sequence: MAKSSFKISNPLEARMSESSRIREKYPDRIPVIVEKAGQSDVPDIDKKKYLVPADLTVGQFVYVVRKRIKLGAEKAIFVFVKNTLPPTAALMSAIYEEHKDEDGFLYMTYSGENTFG

ATG8B (Arabidopsis) = target: T2, ATG8B (Arabidopsis) (UniProt Q9XEB5)
T2 sequence: T1 sequence with A2E, S4N, I8L, A14M, S17A, S20T, E24A, D28E, I30V, V58I

ATG8C (Arabidopsis) = target: T3, ATG8C (Arabidopsis) (UniProt Q8S927)
T3 sequence: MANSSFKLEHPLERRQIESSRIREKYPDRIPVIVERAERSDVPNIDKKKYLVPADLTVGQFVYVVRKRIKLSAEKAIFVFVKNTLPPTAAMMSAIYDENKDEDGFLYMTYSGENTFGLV

ATG8D (Arabidopsis) = target: T4, ATG8D (Arabidopsis) (UniProt Q9SL04)
T4 sequence: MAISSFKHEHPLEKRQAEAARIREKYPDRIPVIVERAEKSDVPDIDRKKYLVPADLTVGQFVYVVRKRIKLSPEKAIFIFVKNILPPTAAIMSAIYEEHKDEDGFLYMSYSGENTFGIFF

ATG8F (Arabidopsis) = target: T5, ATG8F (Arabidopsis) (UniProt Q8VYK7)
T5 sequence: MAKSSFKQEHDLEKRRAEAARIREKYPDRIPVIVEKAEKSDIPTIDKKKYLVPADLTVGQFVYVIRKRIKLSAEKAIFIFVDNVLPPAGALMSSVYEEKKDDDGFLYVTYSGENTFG

ATG8G (Arabidopsis) = target: T6, ATG8G (Arabidopsis) (UniProt Q9LZZ9)
T6 sequence: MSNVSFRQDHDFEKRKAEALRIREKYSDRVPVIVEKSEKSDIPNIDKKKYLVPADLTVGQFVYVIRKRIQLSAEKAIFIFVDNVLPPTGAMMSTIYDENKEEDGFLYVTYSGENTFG

ATG8H (Arabidopsis) = target: T7, ATG8H (Arabidopsis) (UniProt Q8S925)
T7 sequence: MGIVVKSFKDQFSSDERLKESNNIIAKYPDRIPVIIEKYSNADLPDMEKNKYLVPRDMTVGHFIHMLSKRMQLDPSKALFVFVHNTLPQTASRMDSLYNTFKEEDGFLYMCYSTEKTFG

ATG8I (Arabidopsis) = target: T8, ATG8I (Arabidopsis) (UniProt Q9LRP7)
T8 sequence: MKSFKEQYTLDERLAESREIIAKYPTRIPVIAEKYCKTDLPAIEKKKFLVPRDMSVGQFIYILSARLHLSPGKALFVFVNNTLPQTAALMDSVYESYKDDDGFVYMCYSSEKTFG

GST-ATG8A (Arabidopsis) [2] = target: T1, GST-ATG8A (Arabidopsis); remark: listed apart in the source

binding (GST-ATG8A (Arabidopsis) [1]): binds
binding (ATG8B (Arabidopsis)): binds
binding (ATG8C (Arabidopsis)): binds
binding (ATG8D (Arabidopsis)): binds
binding (ATG8F (Arabidopsis)): binds
binding (ATG8G (Arabidopsis)): binds
binding (ATG8H (Arabidopsis)): binds
binding (ATG8I (Arabidopsis)): binds
binding (GST-ATG8A (Arabidopsis) [2]): binds
B1: MBP-LCAT4 (protein, UniProt Q71N54 1-535)
chain: MSLLLEEIIRSVEALLKLRNRNQEPYVDPNLNPVLLVPGIAGSILNAVDHENGNEERVWVRIFGADHEFRTKMWSRFDPSTGKTISLDPKTSIVVPQDRAGLHAIDVLDPDMIVGRESVYYFHEMIVEMIGWGFEEGKTLFGFGYDFRQSNRLQETLDQFAKKLETVYKASGEKKINVISHSMGGLLVKCFMGLHSDIFEKYVQNWIAIAAPFRGAPGYITSTLLNGMSFVNGWEQNFFVSKWSMHQLLIECPSIYELMCCPYFKWELPPVLELWREKESNDGVGTSYVVLESYCSLESLEVFTKSLSNNTADYCGESIDLPFNWKIMEWAHKTKQVLASAKLPPKVKFYNIYGTNLETPHSVCYGNEKMPVKDLTNLRYFQPTYICVDGDGTVPMESAMADGLEAVARVGVPGEHRGILNDHRVFRMLKKWLNVGEPDPFYNPVNDYVILPTTYEFEKFHENGLEVASVKESWDIISDDNNIGTTGSTVNSISVSQPGDDQNPQAEARATLTVQPQSDGRQHVELNAVSVSVDA
